According to PMC4948766:
No constants are given. Whether binding was seen depends on the method and setting. Some entries that bind do so weakly or less than the wild type.

Amino acid sequences for entries named in this document (tags omitted).
UniProt Q9HD34: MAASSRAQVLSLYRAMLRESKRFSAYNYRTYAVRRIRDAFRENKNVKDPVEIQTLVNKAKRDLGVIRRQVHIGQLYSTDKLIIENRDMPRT
UniProt P0A6B7: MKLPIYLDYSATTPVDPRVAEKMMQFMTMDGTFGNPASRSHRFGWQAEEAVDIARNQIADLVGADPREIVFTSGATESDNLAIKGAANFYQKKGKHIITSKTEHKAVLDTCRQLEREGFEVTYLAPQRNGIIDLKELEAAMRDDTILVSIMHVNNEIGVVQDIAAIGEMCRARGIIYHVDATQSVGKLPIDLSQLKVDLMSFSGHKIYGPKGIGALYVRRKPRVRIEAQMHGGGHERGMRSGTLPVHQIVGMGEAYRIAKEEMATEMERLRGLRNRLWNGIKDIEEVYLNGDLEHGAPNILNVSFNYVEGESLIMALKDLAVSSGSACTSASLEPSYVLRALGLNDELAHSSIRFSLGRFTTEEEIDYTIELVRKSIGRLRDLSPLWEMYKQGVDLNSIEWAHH

Target: His-tagged ISD11 (pZM6), co-expressed with IscS (human) (UniProt Q9HD34)
Assay: SEC; analytical SEC at 280 nm of 30 μM co-expressed and co-purified ISD11-His6 (pZM6) and IscS (pSL219), compared with isolated IscS

untagged IscS (pSL219), co-expressed with His-ISD11 (from UniProt P0A6B7 1-404) (enzyme)
binding: binds
